Test results: the supplement of paper PMC6411743
± gives the standard deviation of the averaged measurements. Some of the results follow.

Amino acid sequences for entries named in this document (tags omitted). A change or cut given only in a name is not applied to a line headed by its entry.
UniProt Q9UKF6: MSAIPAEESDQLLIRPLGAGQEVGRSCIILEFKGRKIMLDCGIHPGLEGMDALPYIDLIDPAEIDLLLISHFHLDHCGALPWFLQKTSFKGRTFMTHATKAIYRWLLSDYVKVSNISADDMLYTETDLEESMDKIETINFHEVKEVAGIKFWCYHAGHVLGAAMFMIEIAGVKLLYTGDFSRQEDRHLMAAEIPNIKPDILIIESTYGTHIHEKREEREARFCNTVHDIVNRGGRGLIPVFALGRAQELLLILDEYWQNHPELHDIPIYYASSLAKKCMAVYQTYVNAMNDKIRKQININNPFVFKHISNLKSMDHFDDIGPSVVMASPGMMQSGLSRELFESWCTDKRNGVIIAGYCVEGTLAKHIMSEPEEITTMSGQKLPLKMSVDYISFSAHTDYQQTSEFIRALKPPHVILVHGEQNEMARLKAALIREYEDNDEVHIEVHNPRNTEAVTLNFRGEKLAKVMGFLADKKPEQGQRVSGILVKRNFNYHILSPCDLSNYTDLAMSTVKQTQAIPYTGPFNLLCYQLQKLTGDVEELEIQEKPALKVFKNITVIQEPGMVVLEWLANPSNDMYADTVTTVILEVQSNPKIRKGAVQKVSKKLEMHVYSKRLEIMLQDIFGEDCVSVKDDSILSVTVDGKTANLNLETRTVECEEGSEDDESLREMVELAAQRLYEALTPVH
UniProt Q9BRQ6: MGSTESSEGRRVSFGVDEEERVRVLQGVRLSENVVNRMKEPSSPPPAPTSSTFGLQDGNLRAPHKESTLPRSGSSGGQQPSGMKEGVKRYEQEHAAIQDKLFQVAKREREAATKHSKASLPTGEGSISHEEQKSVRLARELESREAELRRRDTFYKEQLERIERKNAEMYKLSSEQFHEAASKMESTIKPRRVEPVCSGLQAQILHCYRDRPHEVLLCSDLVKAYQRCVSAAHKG
UniProt Q9P246, whole entry: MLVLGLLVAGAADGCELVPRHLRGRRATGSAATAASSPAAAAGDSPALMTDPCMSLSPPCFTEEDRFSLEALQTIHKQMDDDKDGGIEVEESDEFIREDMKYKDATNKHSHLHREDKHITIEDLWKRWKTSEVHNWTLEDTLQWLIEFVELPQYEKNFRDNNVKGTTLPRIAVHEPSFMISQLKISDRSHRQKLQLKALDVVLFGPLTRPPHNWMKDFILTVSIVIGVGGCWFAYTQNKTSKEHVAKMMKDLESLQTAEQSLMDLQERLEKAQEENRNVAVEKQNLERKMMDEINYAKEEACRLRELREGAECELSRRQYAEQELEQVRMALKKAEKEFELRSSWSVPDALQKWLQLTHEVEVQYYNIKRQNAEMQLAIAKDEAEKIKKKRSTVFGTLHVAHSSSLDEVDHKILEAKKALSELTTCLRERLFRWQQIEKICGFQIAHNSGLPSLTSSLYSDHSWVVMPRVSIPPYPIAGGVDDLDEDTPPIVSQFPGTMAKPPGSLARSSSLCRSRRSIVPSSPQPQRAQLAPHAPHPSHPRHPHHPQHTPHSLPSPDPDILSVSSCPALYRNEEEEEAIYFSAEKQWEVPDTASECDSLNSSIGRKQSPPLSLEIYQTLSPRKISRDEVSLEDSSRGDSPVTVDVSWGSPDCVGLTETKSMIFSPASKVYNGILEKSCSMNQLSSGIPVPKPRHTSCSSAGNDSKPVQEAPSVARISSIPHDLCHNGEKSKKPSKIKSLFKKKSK
UniProt O95858: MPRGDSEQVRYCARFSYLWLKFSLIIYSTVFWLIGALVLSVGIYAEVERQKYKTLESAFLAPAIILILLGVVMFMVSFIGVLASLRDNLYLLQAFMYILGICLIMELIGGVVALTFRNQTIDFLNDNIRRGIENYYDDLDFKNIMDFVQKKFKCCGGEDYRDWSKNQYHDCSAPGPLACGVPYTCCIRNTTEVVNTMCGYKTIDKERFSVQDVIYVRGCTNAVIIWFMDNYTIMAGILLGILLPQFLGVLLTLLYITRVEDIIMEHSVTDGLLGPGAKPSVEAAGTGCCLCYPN
UniProt Q02978: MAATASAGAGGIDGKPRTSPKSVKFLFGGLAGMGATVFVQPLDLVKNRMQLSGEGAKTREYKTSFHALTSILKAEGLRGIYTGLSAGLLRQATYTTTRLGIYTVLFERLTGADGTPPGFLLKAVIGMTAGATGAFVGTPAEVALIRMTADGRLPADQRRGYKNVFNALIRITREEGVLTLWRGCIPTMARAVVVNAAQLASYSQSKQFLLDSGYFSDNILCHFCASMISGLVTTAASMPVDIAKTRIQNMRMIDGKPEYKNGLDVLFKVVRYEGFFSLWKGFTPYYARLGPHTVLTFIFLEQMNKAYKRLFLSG
UniProt Q8WUD4: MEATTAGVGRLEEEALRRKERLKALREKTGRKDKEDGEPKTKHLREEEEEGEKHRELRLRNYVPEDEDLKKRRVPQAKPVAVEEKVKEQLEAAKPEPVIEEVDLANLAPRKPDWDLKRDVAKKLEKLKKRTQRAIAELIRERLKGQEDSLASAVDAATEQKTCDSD
UniProt P09493, whole entry: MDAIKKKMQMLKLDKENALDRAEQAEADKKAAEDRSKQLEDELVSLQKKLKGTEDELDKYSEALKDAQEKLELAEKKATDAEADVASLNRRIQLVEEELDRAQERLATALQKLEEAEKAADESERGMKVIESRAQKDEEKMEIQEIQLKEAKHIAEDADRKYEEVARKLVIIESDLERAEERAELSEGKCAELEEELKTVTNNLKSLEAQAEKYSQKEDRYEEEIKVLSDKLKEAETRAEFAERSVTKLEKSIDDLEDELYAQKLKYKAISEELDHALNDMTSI
UniProt O43414: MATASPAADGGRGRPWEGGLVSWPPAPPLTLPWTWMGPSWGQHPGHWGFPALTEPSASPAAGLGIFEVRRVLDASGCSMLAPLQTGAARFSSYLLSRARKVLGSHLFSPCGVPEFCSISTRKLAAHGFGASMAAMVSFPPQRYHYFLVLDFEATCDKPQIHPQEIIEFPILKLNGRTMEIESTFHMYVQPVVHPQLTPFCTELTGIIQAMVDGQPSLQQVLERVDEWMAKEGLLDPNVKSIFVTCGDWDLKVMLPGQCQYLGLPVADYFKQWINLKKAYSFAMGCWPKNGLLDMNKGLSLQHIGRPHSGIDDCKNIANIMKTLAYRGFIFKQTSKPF
UniProt O43716: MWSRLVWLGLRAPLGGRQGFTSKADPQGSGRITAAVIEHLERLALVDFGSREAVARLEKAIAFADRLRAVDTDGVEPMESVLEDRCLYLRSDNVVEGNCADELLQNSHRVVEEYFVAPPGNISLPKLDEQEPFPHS
UniProt P29017: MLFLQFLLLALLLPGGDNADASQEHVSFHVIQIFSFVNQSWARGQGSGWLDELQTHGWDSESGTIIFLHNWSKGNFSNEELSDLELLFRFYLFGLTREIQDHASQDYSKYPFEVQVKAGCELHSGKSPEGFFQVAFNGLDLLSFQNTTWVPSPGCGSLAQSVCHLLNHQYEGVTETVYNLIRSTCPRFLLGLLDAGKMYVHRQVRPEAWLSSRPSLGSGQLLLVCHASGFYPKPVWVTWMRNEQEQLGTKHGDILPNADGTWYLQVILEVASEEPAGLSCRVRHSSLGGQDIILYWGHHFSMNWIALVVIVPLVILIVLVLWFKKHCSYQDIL
UniProt O43566: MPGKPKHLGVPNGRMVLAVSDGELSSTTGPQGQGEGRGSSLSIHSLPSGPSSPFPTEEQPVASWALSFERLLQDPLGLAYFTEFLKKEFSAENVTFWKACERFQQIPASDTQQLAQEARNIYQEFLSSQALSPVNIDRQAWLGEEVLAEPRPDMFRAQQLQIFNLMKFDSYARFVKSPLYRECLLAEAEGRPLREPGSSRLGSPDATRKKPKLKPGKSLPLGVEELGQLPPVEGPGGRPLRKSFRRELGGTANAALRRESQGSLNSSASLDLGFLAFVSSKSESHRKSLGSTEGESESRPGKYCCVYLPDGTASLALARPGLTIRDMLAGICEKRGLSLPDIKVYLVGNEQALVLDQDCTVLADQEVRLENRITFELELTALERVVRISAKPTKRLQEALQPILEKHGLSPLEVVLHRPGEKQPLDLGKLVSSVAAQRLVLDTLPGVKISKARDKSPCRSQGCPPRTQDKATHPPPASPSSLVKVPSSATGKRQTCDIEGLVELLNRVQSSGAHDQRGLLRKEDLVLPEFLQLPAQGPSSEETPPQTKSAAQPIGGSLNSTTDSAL
UniProt Q96ND0: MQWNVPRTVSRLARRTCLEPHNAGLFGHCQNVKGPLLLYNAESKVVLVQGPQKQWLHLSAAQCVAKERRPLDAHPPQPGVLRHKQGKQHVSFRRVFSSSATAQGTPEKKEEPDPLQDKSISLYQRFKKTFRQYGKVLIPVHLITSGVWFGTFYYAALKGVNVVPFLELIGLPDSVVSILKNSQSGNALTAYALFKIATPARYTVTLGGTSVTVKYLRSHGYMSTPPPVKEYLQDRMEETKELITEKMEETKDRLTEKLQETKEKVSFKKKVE
UniProt Q9UGJ1, whole entry: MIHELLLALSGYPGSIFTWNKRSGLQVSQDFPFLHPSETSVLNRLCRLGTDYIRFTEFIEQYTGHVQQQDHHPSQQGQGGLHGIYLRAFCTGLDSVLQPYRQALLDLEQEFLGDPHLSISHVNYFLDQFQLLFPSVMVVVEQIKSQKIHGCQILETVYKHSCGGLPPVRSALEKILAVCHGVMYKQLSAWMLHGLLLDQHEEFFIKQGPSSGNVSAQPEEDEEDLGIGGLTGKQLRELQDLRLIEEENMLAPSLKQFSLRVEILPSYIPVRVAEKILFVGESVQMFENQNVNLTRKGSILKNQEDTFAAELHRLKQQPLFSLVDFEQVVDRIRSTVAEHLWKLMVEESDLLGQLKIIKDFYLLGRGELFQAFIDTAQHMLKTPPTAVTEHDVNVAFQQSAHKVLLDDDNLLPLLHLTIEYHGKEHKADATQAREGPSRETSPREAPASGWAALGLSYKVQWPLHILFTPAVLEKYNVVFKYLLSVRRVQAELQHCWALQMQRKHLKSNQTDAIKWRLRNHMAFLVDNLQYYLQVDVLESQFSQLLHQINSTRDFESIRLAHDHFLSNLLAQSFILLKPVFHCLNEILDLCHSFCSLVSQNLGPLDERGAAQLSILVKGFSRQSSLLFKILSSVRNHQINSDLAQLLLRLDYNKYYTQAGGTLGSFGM
UniProt Q5J8M3, whole entry: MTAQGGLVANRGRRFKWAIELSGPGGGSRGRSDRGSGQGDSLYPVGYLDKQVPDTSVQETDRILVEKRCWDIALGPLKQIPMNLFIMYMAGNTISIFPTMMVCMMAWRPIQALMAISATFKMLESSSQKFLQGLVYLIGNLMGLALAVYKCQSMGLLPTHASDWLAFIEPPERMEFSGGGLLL
UniProt Q99700, whole entry: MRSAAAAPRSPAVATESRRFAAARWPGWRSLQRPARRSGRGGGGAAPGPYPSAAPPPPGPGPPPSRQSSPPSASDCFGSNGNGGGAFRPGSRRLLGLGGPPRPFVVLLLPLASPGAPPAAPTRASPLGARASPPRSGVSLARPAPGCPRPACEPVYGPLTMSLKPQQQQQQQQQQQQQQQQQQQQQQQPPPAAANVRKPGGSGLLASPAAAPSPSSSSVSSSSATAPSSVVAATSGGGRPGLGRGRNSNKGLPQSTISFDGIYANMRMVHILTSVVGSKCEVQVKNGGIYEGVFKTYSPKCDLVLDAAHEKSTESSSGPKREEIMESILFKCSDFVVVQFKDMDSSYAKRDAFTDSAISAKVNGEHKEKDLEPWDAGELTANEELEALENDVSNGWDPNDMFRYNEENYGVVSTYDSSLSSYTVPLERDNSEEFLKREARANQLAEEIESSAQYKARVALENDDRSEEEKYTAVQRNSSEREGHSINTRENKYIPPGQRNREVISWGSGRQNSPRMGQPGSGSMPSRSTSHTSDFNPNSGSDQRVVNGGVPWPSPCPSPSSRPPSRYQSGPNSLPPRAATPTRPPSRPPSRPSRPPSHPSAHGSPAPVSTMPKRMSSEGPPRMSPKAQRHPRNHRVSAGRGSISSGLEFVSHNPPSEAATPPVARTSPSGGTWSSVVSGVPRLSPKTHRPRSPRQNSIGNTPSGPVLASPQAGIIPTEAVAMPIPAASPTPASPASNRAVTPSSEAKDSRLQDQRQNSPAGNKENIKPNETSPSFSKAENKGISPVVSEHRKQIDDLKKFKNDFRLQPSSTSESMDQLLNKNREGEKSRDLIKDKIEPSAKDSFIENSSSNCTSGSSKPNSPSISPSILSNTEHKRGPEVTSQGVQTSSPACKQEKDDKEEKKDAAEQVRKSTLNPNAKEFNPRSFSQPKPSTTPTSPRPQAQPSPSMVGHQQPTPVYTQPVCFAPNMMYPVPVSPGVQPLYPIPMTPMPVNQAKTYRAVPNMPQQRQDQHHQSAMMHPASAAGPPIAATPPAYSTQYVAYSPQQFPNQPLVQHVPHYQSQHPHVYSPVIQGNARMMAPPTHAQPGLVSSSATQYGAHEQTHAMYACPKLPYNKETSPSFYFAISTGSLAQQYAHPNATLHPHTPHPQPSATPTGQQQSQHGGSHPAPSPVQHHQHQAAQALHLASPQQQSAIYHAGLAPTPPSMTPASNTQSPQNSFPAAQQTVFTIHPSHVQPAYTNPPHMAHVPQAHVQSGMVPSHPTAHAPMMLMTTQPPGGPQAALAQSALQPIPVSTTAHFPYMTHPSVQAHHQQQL

Compound: Nc1nc2c(ncn2[C@@H]2O[C@H](COP(=O)(O)OP(=O)(O)OP(=O)(O)O)[C@@H](O)[C@H]2O)c(=O)[nH]1 [guanosine triphosphate]
Assay: NP40-soluble protein abundance relative to vehicle (solubility fold change) (ratio); higher = more soluble protein in presence of GTP
Summary of the method: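 Jurkat crude lysate (Dounce-homogenised) was treated with eight concentrations from 0.1 to 10 mM for 10 min at room temperature, then 3 min at 37 °C. It was solubilised with 0.8% NP40 and benzonase (60 min, 4 °C) and ultracentrifuged, and the supernatant was TMT-labelled for LC-MS/MS. Intensities were vsn-normalised, and the value is the fold change against the NP40-processed vehicle per replicate, from three independent experiments.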

| Target | NP40-soluble protein abundance (concentration: 0.1mM) | NP40-soluble protein abundance (concentration: 0.5mM) | NP40-soluble protein abundance (concentration: 1mM) | NP40-soluble protein abundance (concentration: 2mM) | NP40-soluble protein abundance (concentration: 4mM) | NP40-soluble protein abundance (concentration: 6mM) | NP40-soluble protein abundance (concentration: 8mM) | NP40-soluble protein abundance (concentration: 10mM) |
| --- | --- | --- | --- | --- | --- | --- | --- | --- |
| J3QQJ0 and related entries (UniProt Q9UHR5) | 0.875 ± 0.07 | 0.884 ± 0.087 | 0.925 ± 0.075 | 0.89 ± 0.084 | 0.858 ± 0.066 | 0.878 ± 0.047 | 0.844 ± 0.048 | 0.895 ± 0.064 |
| G5E9W3 and related entries (UniProt Q9UKF6) | 1.01 ± 0.029 | 1.03 ± 0.033 | 0.999 ± 0.042 | 1.03 ± 0.012 | 1.05 ± 0.065 | 1.08 ± 0.062 | 1.03 ± 0.023 | 1.03 ± 0.019 |
| J3KR58 and related entries (UniProt Q99611) | 1.01 ± 0.14 | 0.995 ± 0.11 | 1.01 ± 0.15 | 0.973 ± 0.14 | 0.957 ± 0.22 | 0.968 ± 0.2 | 0.917 ± 0.076 | 0.934 ± 0.077 |
| J3QTA6 and related entries (UniProt Q9BRQ6) | 1 ± 0.084 | 1.01 ± 0.083 | 1.12 ± 0.14 | 1.15 ± 0.054 | 1.15 ± 0.09 | 1.16 ± 0.062 | 1.22 ± 0.12 | 1.26 ± 0.21 |
| H0YKD8 and related entries (UniProt P46779) | 0.989 ± 0.1 | 1.06 ± 0.17 | 1.07 ± 0.23 | 0.993 ± 0.27 | 0.881 ± 0.33 | 0.854 ± 0.28 | 0.527 ± 0.13 | 0.901 ± 0.33 |
| J3KNZ9 (UniProt Q9HAH7) | 1.01 ± 0.12 | 0.933 ± 0.095 | 0.978 ± 0.056 | 0.984 ± 0.061 | 0.971 ± 0.051 | 1.01 ± 0.05 | 1.02 ± 0.015 | 1.01 ± 0.061 |
| H0Y6E6 and related entries (UniProt Q92622) | 0.979 ± 0.055 | 1.16 ± 0.18 | 1.02 ± 0.21 | 1.03 ± 0.13 | 1.02 ± 0.14 | 1.04 ± 0.11 | 0.935 ± 0.16 | 1.09 ± 0.14 |
| K7EK33 and related entries (UniProt Q96EP5) | 0.908 ± 0.11 | 0.947 ± 0.08 | 0.953 ± 0.095 | 0.912 ± 0.12 | 0.866 ± 0.12 | 0.898 ± 0.095 | 0.924 ± 0.072 | 0.93 ± 0.076 |
| UniProt H3BN98 | 0.923 ± 0.017 | 0.858 ± 0.049 | 0.708 ± 0.05 | 0.77 ± 0.13 | 0.7751 ± 0.0041 | 0.743 ± 0.098 | 0.743 ± 0.15 | 0.851 ± 0.024 |
| H0Y860 and related entries (UniProt Q9P246) | 0.977 ± 0.021 | 0.952 ± 0.015 | 1.06 ± 0.096 | 1.06 ± 0.06 | 1.13 ± 0.26 | 1.034 ± 0.0099 | 1.12 ± 0.12 | 0.958 ± 0.07 |
| H7C285 and related entries (UniProt O95858) | 0.991 ± 0.12 | 0.993 ± 0.027 | 0.948 ± 0.047 | 0.962 ± 0.11 | 0.972 ± 0.1 | 0.958 ± 0.1 | 0.972 ± 0.14 | 0.9589 ± 0.00067 |
| I3L1P8 and related entries (UniProt Q02978) | 1.02 ± 0.021 | 0.999 ± 0.026 | 0.942 ± 0.012 | 1.01 ± 0.12 | 0.994 ± 0.074 | 0.983 ± 0.072 | 0.945 ± 0.034 | 0.976 ± 0.028 |
| H3BSM7 and related entries (UniProt Q96GQ5) | 1.05 ± 0.046 | 1.043 ± 0.0077 | 0.977 ± 0.029 | 0.986 ± 0.057 | 0.996 ± 0.061 | 0.984 ± 0.076 | 0.97 ± 0.017 | 0.924 ± 0.075 |
| J3KR35 and related entries (UniProt Q8WUD4) | 0.83 ± 0.13 | 0.759 ± 0.063 | 1.02 ± 0.095 | 1.01 ± 0.02 | 0.897 ± 0.061 | 0.944 ± 0.066 | 0.8 ± 0.16 | 1.1 ± 0.17 |
| H0YK48 and related entries (UniProt P09493) | 0.878 ± 0.19 | 0.762 ± 0.021 | 1.45 ± 0.24 | 1.2 ± 0.2 | 1.28 ± 0.066 | 1.21 ± 0.11 | 1.1 ± 0.019 | 1.37 ± 0.26 |
| H0Y4B0 and related entries (UniProt O43414) | 1.05 ± 0.043 | 1.01 ± 0.067 | 0.945 ± 0.067 | 0.942 ± 0.066 | 0.86 ± 0.076 | 0.943 ± 0.11 | 0.9 ± 0.1 | 0.829 ± 0.13 |
| H0YIV9 and related entries (UniProt O43716+H0YIV9) | 0.985 ± 0.12 | 0.921 ± 0.033 | 1.12 ± 0.047 | 1.05 ± 0.023 | 1.03 ± 0.042 | 1.05 ± 0.03 | 1.03 ± 0.024 | 1.08 ± 0.022 |
| H0Y7L2 and related entries (UniProt Q96N67) | 1.05 ± 0.064 | 1.09 ± 0.12 | 1.06 ± 0.086 | 1.12 ± 0.11 | 1.14 ± 0.15 | 1.15 ± 0.15 | 1.11 ± 0.12 | 1.07 ± 0.076 |
| H7BXF4 and related entries (UniProt Q9NXE4) | 0.965 ± 0.041 | 1.01 ± 0.1 | 0.932 ± 0.013 | 0.981 ± 0.095 | 0.992 ± 0.03 | 0.929 ± 0.056 | 0.897 ± 0.083 | 0.885 ± 0.087 |
| H0Y6Y6 and related entries (UniProt P29017) | 0.943 ± 0.014 | 0.865 ± 0.045 | 0.934 ± 0.025 | 0.909 ± 0.035 | 0.91 ± 0.061 | 0.881 ± 0.062 | 0.888 ± 0.089 | 0.896 ± 0.032 |
| H7BXF5 and related entries (UniProt Q9H0E3) | 1.03 ± 0.037 | 0.971 ± 0.052 | 1.08 ± 0.074 | 1.08 ± 0.065 | 1.12 ± 0.12 | 1.14 ± 0.15 | 1.16 ± 0.12 | 1.2 ± 0.17 |
| H0Y8W3 and related entries (UniProt O43566) | 0.964 ± 0.04 | 0.975 ± 0.016 | 0.995 ± 0.014 | 0.991 ± 0.041 | 0.967 ± 0.036 | 0.971 ± 0.053 | 0.961 ± 0.022 | 0.963 ± 0.034 |
| K7EK00 and related entries (UniProt Q96ND0) | 0.946 ± 0.018 | 0.904 ± 0.09 | 0.933 ± 0.027 | 0.937 ± 0.033 | 0.946 ± 0.024 | 0.934 ± 0.069 | 0.916 ± 0.036 | 0.8929 ± 0.0026 |
| H3BPU4 and related entries (UniProt Q9UGJ1) | 1.03 ± 0.11 | 1.07 ± 0.11 | 1.03 ± 0.11 | 1.2 ± 0.17 | 1.25 ± 0.2 | 1.26 ± 0.19 | 1.12 ± 0.19 | 0.968 ± 0.13 |
| H0YK61 and related entries (UniProt Q5J8M3) | 0.947 ± 0.014 | 1.012 ± 0.0041 | 1.03 ± 0.092 | 0.999 ± 0.038 | 0.956 ± 0.042 | 0.961 ± 0.029 | 1.07 ± 0.018 | 0.981 ± 0.033 |
| H0YH87 and related entries (UniProt Q99700) | 1 ± 0.047 | 0.972 ± 0.041 | 1.08 ± 0.046 | 1.08 ± 0.034 | 1.11 ± 0.023 | 1.12 ± 0.02 | 1.11 ± 0.043 | 1.2 ± 0.071 |

As entered above.
In NP40-soluble protein abundance (concentration: 1mM), UniProt H3BN98 is entered as 0.708 ± 0.05
In NP40-soluble protein abundance (concentration: 6mM), K7EK33 and related entries (UniProt Q96EP5) is entered as 0.898 ± 0.095
